This assay deals with M. mycetomatis strain mm55. Particulars: 96 h, 2 µM.

Structures are written as SMILES. Where a name gives a salt, the structure may show the parent alone. Read-outs that look alike come from different tables or passages of the source. Out of some 5,300 compounds screened, about 130 (2.5%) showed an effect of 50% or more. Some of the results follow.

`S=C=Nc1cccc(NC(=S)NCCCCNC(=S)Nc2cccc(N=C=S)c2)c1` [ONC0005101, mrs 2578]: the “% viability” value (m. mycetomatis hyphae) was determined as 76.23%.
As for `CN1C[C@H](CNC(=O)OCc2ccccc2)C[C@@H]2c3cccc4c3c(cn4C)C[C@H]21` [ONC0003316, metergoline], the “% viability” value (primary screen, metabolic activity vs growth control, inhibitor) is 72.73%.
Take `O=[N+]([O-])c1ncc[nH]1` [ONC0002747, azomycin 2nitroimidazole]: the “% viability” value (m. mycetomatis hyphae) came to 88.58%.
Consider `CCCCCCCCCC(=O)O[C@H]1CC[C@H]2[C@@H]3CCC4=CC(=O)CC[C@@H]4[C@H]3CC[C@]12C` [ONC0000895, nandrolone decanoate], for which the “% viability” value (m. mycetomatis hyphae) amounted to 54.5%.
Same read-out and setting: to `O=C(N[C@H]1CN2CCC1CC2)c1ccc2c(c1)OCCO2` [ONC0002631, pha568487 fumarate] belongs 74.47%; to `O=C1CN=C(c2cccc(Br)c2)c2oc3ccccc3c2N1` [ONC0000192, 5bdbd], 69.26%; to `Oc1ccc2c3c1O[C@H]1[C@@H](O)CC[C@@]4(O)[C@@H](C2)N(CC2CCC2)CC[C@]314` [ONC0002017, nalbuphinehcl], 86.82%.
Same read-out and setting: the result for `COC(=O)C[C@](O)(CCC(C)(C)O)C(=O)O[C@@H]1C(OC)=C[C@]23CCCN2CCc2cc4c(cc2[C@H]13)OCO4` [ONC0003494, harringtonine] reads 81.44%.
Same read-out and setting: the result for `CCOc1ccccc1O[C@@H](c1ccccc1)[C@@H]1CNCCO1.CCOc1ccccc1O[C@H](c1ccccc1)[C@H]1CNCCO1` [ONC0004420, reboxetine] reads 159.3%.
`C[C@]12CC[C@H](O)C[C@H]1CC[C@@H]1[C@@H]2CC[C@]2(C)[C@@H](C3=CC(=O)OC3)CC[C@]12O` [ONC0002328, digitoxigenin]: where the note is “m. mycetomatis hyphae”, the “% viability” value worked out at 82.95%.
Still for that read-out and setting: to `O=C(CBr)N1CC([N+](=O)[O-])([N+](=O)[O-])C1` [ONC0001848, 2bromo133dinitroazetidin1ylethan1one] belongs 86.51%.
As for `CCn1nc(C)c2c1C(c1ccccc1)=NCC(=O)N2` [ONC0002127, ripazepam], where the note is “m. mycetomatis hyphae”, the “% viability” value is reported as 106.5%.
The same measure, in the same setting: the result for `CC(C)C[C@H](NC(=O)[C@H](CCCCN)NC(=O)[C@H](CCCN=C(N)N)NC(=O)[C@H](C)NC(=O)[C@H](CO)NC(=O)[C@H](CCCCN)NC(=O)[C@H](CCCN=C(N)N)NC(=O)[C@H](C)NC(=O)CNC(=O)[C@@H](NC(=O)[C@H](Cc1ccccc1)NC(=O)CNC(=O)CNC(=O)[C@@H](N)Cc1ccccc1)[C@@H](C)O)C(=O)N[C@@H](C)C(=O)N[C@@H](CC(N)=O)C(=O)N[C@@H](CCC(N)=O)C(=O)O` [ONC0002009, orphaninfq nociceptin] reads 86.82%; that for `COC[C@@H](NC(C)=O)C(=O)NCc1ccccc1` [ONC0003496, lacosamide], 80.52%.
In the case of `OCCCCO` [ONC0002153, 14butanediol], for the setting “m. mycetomatis hyphae”, the “% viability” value came to 73.64%.
The same measure, in the same setting: to `Cn1c2c(c3ccccc31)CCNCC2` [ONC0004357, pnu22394] belongs 99.1%.
Same read-out and setting: the result for `CCOP(=S)(OCC)Oc1ccc2c(C)c(Cl)c(=O)oc2c1` [ONC0003318, coumophos] reads 94.05%; that for `CCC1(CC)C(=O)NC(=O)N(C)C1=O` [ONC0002068, metharbital], 67.65%.
Still for that read-out and setting: the result for `CCN1C[C@]2(COC(=O)c3ccccc3N3C(=O)C[C@H](C)C3=O)CC[C@H](OC)[C@@]34[C@@H]5C[C@H]6[C@H](OC)[C@@H]5[C@](O)(C[C@@H]6OC)[C@@](O)([C@@H](OC)[C@H]23)[C@@H]14` [ONC0001918, methyllycaconitine] reads 86.93%; that for `O=C(/C=C/c1ccc(O)cc1)C1=C(O)C(O)([C@@H]2O[C@H](CO)[C@@H](O)[C@H](O)[C@H]2O)C(O)=C([C@@H]2O[C@H](CO)[C@@H](O)[C@H](O)[C@H]2O)C1=O` (stereo partly shown) [ONC0002065, hydroxysafflor yellow a], 71.37%; that for `C/C(=C\C(N)C(=O)O)CP(=O)(O)O` (stereo not shown) [ONC0004111, cgp 37849], 128%.
As to `COc1cc(C)[nH]c(=O)c1CNC(=O)c1c(C)n([C@H](C)C2CCOCC2)c2ccccc12` [ONC0001134, cpi360], the “% viability” value (m. mycetomatis hyphae) is listed as 70.69%.
For the compound `c1ccc2c(c1)sc1ccccc12` [ONC0000385, dibenzothiophene], under “m. mycetomatis hyphae”, the “% viability” value was 66.56%.
Same read-out and setting: to `C=C(C)[C@@H]1[C@H]2OC(=O)[C@H]1[C@]1(O)C[C@H]3O[C@]34C(=O)O[C@H]2[C@]14C` [ONC0004797, picrotoxinin] belongs 48.22%.
Still for that read-out and setting: to `O=C(C[S+]([O-])C(c1ccccc1)c1ccccc1)NO` (stereo not shown) [ONC0001184, adrafinil] belongs 106.5%.
On the same count and under the same terms, the result for `C[C@]12COC(=O)C[C@@H]1CC[C@@H]1[C@@H]2CC[C@@]2(C)[C@H]1CC[C@]2(C)O` [ONC0001895, oxandrolone] reads 92.75%; that for `CCOP(=S)(OCC)Oc1nc(Cl)c(Cl)cc1Cl` [ONC0003271, chlorpyrifos], 79.42%.
As to `Cc1sc2c(c1C)C(c1ccc(Cl)cc1)=N[C@@H](CC(=O)OC(C)(C)C)c1nnc(C)n1-2` [ONC0005134, jq1], the “% viability” value (m. mycetomatis hyphae) amounted to 102.1%.
Still for that read-out and setting: to `CN1CCc2cc3c(cc2C1[C@@H]1OC(=O)c2c1ccc1c2OCO1)OCO3` (stereo partly shown) [ONC0001472, bicuculline] belongs 70.01%; to `Cn1c(COP(=O)(NCCBr)NCCBr)cnc1[N+](=O)[O-]` [ONC0001269, evofosfamide], 78.36%.
On the same count and under the same terms, the result for `CC(=O)NC1N=C(c2ccccc2)c2ccccc2NC1=O` (stereo not shown) [ONC0001858] reads 90.13%; that for `Ic1cncc(OC[C@@H]2CCN2)c1` [ONC0001838, 5iodoa85380], 120.9%; that for `CC(C)CC(N)C1(c2ccc(Cl)cc2)CCC1` (stereo not shown) [ONC0002665, bts54505], 62.54%.
The same measure, in the same setting: the result for `CCc1cc2c(s1)-n1c(C)nnc1CN=C2c1ccccc1Cl` [ONC0001021, etizolam] reads 83.85%.
Regarding `Cc1ncc(OC[C@@]2(c3cccc(F)c3)C[C@H]2C(=O)Nc2ccc(F)cn2)c(C)n1` [ONC0001232, lemborexant], where the note is “m. mycetomatis hyphae”, the “% viability” value is recorded as 126.3%.
Same read-out and setting: the result for `C=CCC1(CC(C)C)C(=O)NC(=O)NC1=O` [ONC0002224, butalbital] reads 58.87%; that for `Cn1cc(C(=O)c2cccc3ccccc23)cc1C(=O)O` [ONC0003763, napirimus], 99.27%; that for `OC(c1ccccc1)(c1ccccc1)C1CCNCC1` [ONC0004811, azacyclonol], 81.59%.
On the same count and under the same terms, the result for `Clc1ccc(C(c2ccc(Cl)cc2)C(Cl)(Cl)Cl)cc1` [ONC0004078, 44ddt] reads 116.6%; that for `COC(=O)/C=C/C(=O)N[C@@H]1CC[C@@]2(O)[C@H]3Cc4ccc(O)c5c4[C@@]2(CCN3CC2CC2)[C@H]1O5` [ONC0001459, betafunaltrexamine], 48.02%.
Still for that read-out and setting: the result for `COc1cc(OC)c(OC)cc1C=O` [ONC0004768, asaraldehyde asaronaldehyde] reads 73.41%; that for `CNC(=O)N(C)N=O` [ONC0003332, nitrosodimethylurea], 73.1%.
Turning to `CCC1(C)CC(=O)NC(=O)C1` [ONC0002781, bemegride], the “% viability” value (m. mycetomatis hyphae) was 128.5%.
The same measure, in the same setting: the result for `CCCC(C)(COC(N)=O)COC(=O)NC(C)C` (stereo not shown) [ONC0000784, carisoprodol] reads 82.1%; that for `O=C1Nc2ccc(Cl)c3c2C1(CCCCN1CC=C(c2ccc(Cl)cc2)CC1)CCC3` (stereo not shown) [ONC0000257, dr4485], 73.2%; that for `NC(=O)CN1CC(c2ccccc2)CC1=O` (stereo not shown) [ONC0001209, phenylpiracetam], 95.67%.
On the same count and under the same terms, the result for `C[C@]12CC[C@@H](O)C[C@H]1CC[C@@H]1[C@@H]2CC[C@]2(C)C(=O)CC[C@@H]12` [ONC0002860, 3alphahydroxy5betaandrostan17one] reads 111.6%.
Same read-out and setting: to `O=C(Nc1ccc(Br)cc1)c1cc(Br)cc(Br)c1O` [ONC0002986, tribomsalan] belongs 104.9%.
In the case of `CC(=O)Nc1cc([As](=O)(O)O)ccc1O` [ONC0003129, acetarsol], the “% viability” value (m. mycetomatis hyphae) turned out to be 76.19%.
Regarding `NC(C(=O)O)c1cc(=O)[nH]o1` (stereo not shown) [ONC0001481, ibotenicacid], the “% viability” value (m. mycetomatis hyphae) came to 54.38%.
On the same count and under the same terms, to `CCCCCCCCC(=O)NCc1ccc(O)c(OC)c1` [ONC0005301, nonivamide] belongs 102.5%; to `CCC(=O)OC(Cc1ccccc1)(c1ccccc1)C(C)CN(C)C` (stereo not shown) [ONC0002923, levopropoxyphene], 67.59%.
The same measure, in the same setting: to `O=[N+]([O-])c1ccc(O)c([N+](=O)[O-])c1` [ONC0003307, 24dinitrophenol] belongs 82.81%; to `N[C@@]1(C(=O)O)CC[C@H](C(=O)O)C1.N[C@]1(C(=O)O)CC[C@@H](C(=O)O)C1` [ONC0000225, cisacpd], 82.26%; to `Nc1cc2c3ccccc3ccc2c2ccccc12` [ONC0002168, 6aminochrysene], 84.82%.
Take `Cc1cc(N2CCN([C@@H]3CN[C@H](C(=O)N4CCSC4)C3)CC2)n(-c2ccccc2)n1` [ONC0001798, teneligliptin]: the “% viability” value (m. mycetomatis hyphae) was 125.9%.
On the same count and under the same terms, the result for `COc1ccc(CN(C(=O)[C@@H](N)Cc2c(C)cc(C(N)=O)cc2C)[C@@H](C)c2nc(-c3ccccc3)c[nH]2)cc1C(=O)O` [ONC0002092, eluxadoline] reads 69.65%.
On the same count and under the same terms, the result for `c1ccc(CC(c2ccccc2)N2CCCCC2)cc1` (stereo not shown) [ONC0000060, 112diphenylethylpiperidine] reads 45.07%; that for `CNC(C)(C)Cc1ccccc1` [ONC0002830, mephentermine sulfate], 106.4%; that for `C[C@]12CC[C@H](O)C[C@@H]1CC[C@@H]1[C@H]2CC[C@]2(C)C(=O)CC[C@@H]12` [ONC0005247, epiandrosterone 3androsterone], 106.6%.
Still for that read-out and setting: to `C[C@]12CCC(=O)C=C1CC[C@@H]1[C@@H]2CC[C@@]2(C)[C@H]1CC[C@]2(C)O` [ONC0001781, 17ü¾Œ–Œ¼methyltestosterone] belongs 115.9%; to `C#CCOC(=O)C1=CCCN(C)C1` [ONC0002535, arecaidinepropargylester], 66.39%.
`CNC(C)CC1CCCCC1` (stereo not shown) [ONC0002340, propylhexedrine]: the “% viability” value (m. mycetomatis hyphae) was 61.82%.
Still for that read-out and setting: the result for `COc1cccc2c1C(=O)c1c(O)c3c(c(O)c1C2=O)C[C@@](O)(C(=O)CO)C[C@@H]3O[C@H]1C[C@H](N2CCO[C@H](OC)C2)[C@H](O)[C@H](C)O1` [ONC0001900, nemorubicin] reads 89.6%; that for `CN1C[C@@H]2c3ccccc3Oc3ccc(Cl)cc3[C@H]2C1.CN1C[C@H]2c3ccccc3Oc3ccc(Cl)cc3[C@@H]2C1` [ONC0000731, asenapine maleate], 74.48%.
On to `COc1ccc(C(=O)c2c(C)n(CCN3CCOCC3)c3ccccc23)cc1` [ONC0001936, pravadoline], for which the “% viability” value (m. mycetomatis hyphae) was determined as 72.97%.
For the compound `c1cc2c(c(N3CCNCC3)c1)OCCO2` [ONC0001200, eltoprazine hydrochloride], the “% viability” value (m. mycetomatis hyphae) worked out at 81.55%.
The same measure, in the same setting: to `CC(C)(N)Cc1ccccc1` [ONC0002302, phentermine] belongs 88.57%; to `CC(C)(C)OC(=O)c1ncn2c1[C@@H]1CCCN1C(=O)c1c(Br)cccc1-2` [ONC0000814, bretazenil], 65.32%.
The same measure, in the same setting: the result for `C/C1=C/C[C@@H](/C(C)=C/c2csc(C)n2)OC(=O)C[C@H](O)C(C)(C)C(=O)[C@H](C)[C@@H](O)[C@@H](C)CCC1` [ONC0001804, epothilone d] reads 116.1%.
Same read-out and setting: the result for `CCC(=O)O[C@H]1CCC2C3CCC4=CC(=O)CC[C@]4(C)C3CC[C@@]21C` (stereo partly shown) [ONC0003302, testosterone propionate] reads 66.81%.
Consider `C[C@H]1O[C@@H](O[C@H]2CC[C@@]3(C)[C@H](CC[C@@H]4[C@@H]3C[C@@H](O)[C@]3(C)[C@@H](C5=CC(=O)OC5)CC[C@]43O)C2)C[C@H](O)[C@@H]1O[C@H]1C[C@H](O)[C@H](O[C@H]2C[C@H](O)[C@H](O[C@@H]3O[C@H](CO)[C@@H](O)[C@H](O)[C@H]3O)[C@@H](C)O2)[C@@H](C)O1` [ONC0000269, deslanoside], for which the “% viability” value (m. mycetomatis hyphae) is reported as 75.34%.
Still for that read-out and setting: to `O=C(Oc1ccc([N+](=O)[O-])cc1)N1CCN(Cc2cccc(Oc3ccccc3)c2)CC1` [ONC0000188, jzl195] belongs 87.43%.
